This continues a long series; more values of the same kind are listed elsewhere.
System: H. pylori 26695
Assay: In vivo inhibition of HsrA: RNA-Seq transcriptomic analysis of exposed cells
Type: cell-based, Helicobacter pylori
Method: Bacterial growth from three blood agar plates of H. pylori ATCC 700392 (aka 26695) incubated for 48 h at 37 °C under microaerobic conditions was aseptically resuspended in BHI + FBS and adjusted to 10^7 CFU/mL. BHI broth cultures were incubated microaerobically at 37 °C for 24 h. […] At this time, bacterial growth was stopped by adding 1.5 mL ice-cold RNA stop solution (95% absolute ethanol, 5% acid-buffered phenol) and subsequently incubated on ice. Control samples were exposed to the same amount of DMSO instead of the inhibitor. Helicobacter cells from all samples were harvested by centrifugation (4000 rpm at 4 °C for 10 min), then the pellets were quickly frozen by immersion in liquid nitrogen and stored at −80 °C.
RNA-Seq analysis was performed by GENEWIZ (Azenta Life Sciences, Leipzig, Germany). Frozen cell pellets from two biological replicates of each treatment condition were properly submitted to GENEWIZ in dry ice. RNA-Seq libraries were prepared according to standard protocols via rRNA depletion, RNA fragmentation and random priming, reverse transcription, 5’-phosphorylation and dA-tailing of cDNAs, adaptor ligation, and PCR enrichment. Once the quality of each library was confirmed, they were sequenced on an Illumina NovaSeq 6000 (Illumina, San Diego, CA, USA) with 150-bp paired-ends. Raw sequence reads were filtered to remove possible adapter sequences and nucleotides with poor quality using Trimmomatic v.0.36 [105]. The trimmed reads were subsequently mapped to the H. pylori strain 26695 reference genome NC_000915.1 available on NCBI, by using the Bowtie2 aligner v.2.2.6 [106]. Unique gene hit counts were calculated by using featureCounts from the Subread package v.1.5.2. Only unique reads that fell within the gene regions were counted. Using DESeq2 [108], a comparison of the gene expression between the control and treated groups of samples was performed. The Wald test was used to generate p-values and log2 fold changes. Genes with an adjusted p-value < 0.05 and absolute log2 fold change >1 were considered as differentially expressed genes (DEGs) for each comparison. The RNA-Seq data generated in this study have been deposited in ArrayExpress with the accession number E-MTAB-14255.

NC(=NOC(=O)Nc1ccc(Cl)cc1)c1csc([N+](=O)[O-])c1 [Ligand V, N′-{[(4-chloroanilino)carbonyl]}oxy-5-nitrothiophene-3-carboximidamide]
log2 Fold Change (gene HP0498, exposed to lethal concentration of V vs control): -0.924
log2 Fold Change (gene HP0499, exposed to lethal concentration of V vs control): -0.948
log2 Fold Change (gene HP0506, exposed to lethal concentration of V vs control): -1.603
log2 Fold Change (gene HP0507, exposed to lethal concentrations vs control): -0.762
log2 Fold Change (gene HP0508, exposed to lethal concentration of V vs control): -1.161
log2 Fold Change (gene HP0509, exposed to lethal concentrations vs control): 0.101
log2 Fold Change (gene HP0510, exposed to lethal concentrations vs control): 1.452
log2 Fold Change (gene HP0511, exposed to lethal concentrations of V vs control): 0.491
log2 Fold Change (gene HP0512, exposed to lethal concentrations vs control): 0.089
log2 Fold Change (gene HP0520, exposed to lethal concentrations vs control): 1.569
log2 Fold Change (gene HP0522, exposed to lethal concentration of V vs control): -0.888
log2 Fold Change (gene HP0523, exposed to lethal concentration of V vs control): -1.071
log2 Fold Change (gene HP0524, exposed to lethal concentrations vs control): -0.699
log2 Fold Change (gene HP0526, exposed to lethal concentration of V vs control): -1.128
log2 Fold Change (gene HP0527, exposed to lethal concentrations vs control): -0.822
log2 Fold Change (gene HP0528, exposed to lethal concentrations of V vs control): 0.539
log2 Fold Change (gene HP0529, exposed to lethal concentration of V vs control): -0.987
log2 Fold Change (gene HP0530, exposed to lethal concentrations vs control): -0.777
log2 Fold Change (gene HP0531, exposed to lethal concentrations vs control): -0.014
log2 Fold Change (gene HP0532, exposed to lethal concentrations of V vs control): 0.758
log2 Fold Change (gene HP0535, exposed to lethal concentrations vs control): -0.063
log2 Fold Change (gene HP0538, exposed to lethal concentrations vs control): -0.871
log2 Fold Change (gene HP0541, exposed to lethal concentrations vs control): 1.263
log2 Fold Change (gene HP0542, exposed to lethal concentrations vs control): 1.038
log2 Fold Change (gene HP0544, exposed to lethal concentration of V vs control): -1.327
log2 Fold Change (gene HP0545, exposed to lethal concentrations vs control): 0.068
log2 Fold Change (gene HP0546a, exposed to lethal concentration of V vs control): -1.590
log2 Fold Change (gene HP0547, exposed to lethal concentrations vs control): 1.917
log2 Fold Change (gene HP0549, exposed to lethal concentrations vs control): -0.825
log2 Fold Change (gene HP0552, exposed to lethal concentrations vs control): -0.792
log2 Fold Change (gene HP0553, exposed to lethal concentration of V vs control): -1.109
log2 Fold Change (gene HP0554, exposed to lethal concentration of V vs control): -1.186
log2 Fold Change (gene HP0556, exposed to lethal concentrations vs control): 1.197
log2 Fold Change (gene HP0557, exposed to lethal concentration of V vs control): -1.409
log2 Fold Change (gene HP0558, exposed to lethal concentrations vs control): -0.745
log2 Fold Change (gene HP0565, exposed to lethal concentrations of V vs control): 0.966
log2 Fold Change (gene HP0567, exposed to lethal concentration of V vs control): -0.892
log2 Fold Change (gene HP0570, exposed to lethal concentrations vs control): 1.868
log2 Fold Change (gene HP0571, exposed to lethal concentrations of V vs control): 0.760
log2 Fold Change (gene HP0572, exposed to lethal concentrations vs control): -0.097
log2 Fold Change (gene HP0573, exposed to lethal concentrations vs control): 1.742
log2 Fold Change (gene HP0574, exposed to lethal concentration of V vs control): -2.035
log2 Fold Change (gene HP0575, exposed to lethal concentration of V vs control): -1.066
log2 Fold Change (gene HP0577, exposed to lethal concentrations vs control): 0.069
log2 Fold Change (gene HP0578, exposed to lethal concentrations vs control): -0.657
log2 Fold Change (gene HP0579, exposed to lethal concentrations vs control): -0.671
log2 Fold Change (gene HP0580, exposed to lethal concentrations vs control): -0.090
log2 Fold Change (gene HP0581, exposed to lethal concentration of V vs control): -0.956
log2 Fold Change (gene HP0582, exposed to lethal concentration of V vs control): -1.418
log2 Fold Change (gene HP0584, exposed to lethal concentrations of V vs control): 0.923
log2 Fold Change (gene HP0585, exposed to lethal concentrations vs control): -0.015
log2 Fold Change (gene HP0585a, exposed to lethal concentrations vs control): -0.037
log2 Fold Change (gene HP0592, exposed to lethal concentration of V vs control): -1.785
log2 Fold Change (gene HP0594, exposed to lethal concentration of V vs control): -0.908
log2 Fold Change (gene HP0595, exposed to lethal concentrations vs control): -0.101
log2 Fold Change (gene HP0597, exposed to lethal concentrations of V vs control): 0.579
log2 Fold Change (gene HP0598, exposed to lethal concentrations vs control): -0.833
log2 Fold Change (gene HP0599, exposed to lethal concentrations vs control): 0.090
log2 Fold Change (gene HP0601, exposed to lethal concentrations vs control): 1.109
log2 Fold Change (gene HP0603, exposed to lethal concentrations of V vs control): 0.622
log2 Fold Change (gene HP0605, exposed to lethal concentrations vs control): -0.075
log2 Fold Change (gene HP0606, exposed to lethal concentration of V vs control): -0.895
log2 Fold Change (gene HP0614, exposed to lethal concentrations of V vs control): 0.720
log2 Fold Change (gene HP0620, exposed to lethal concentration of V vs control): -0.897
log2 Fold Change (gene HP0621, exposed to lethal concentrations vs control): -0.863
log2 Fold Change (gene HP0622, exposed to lethal concentration of V vs control): -1.153
log2 Fold Change (gene HP0624, exposed to lethal concentrations vs control): -0.767
log2 Fold Change (gene HP0626, exposed to lethal concentrations vs control): 1.393
log2 Fold Change (gene HP0629, exposed to lethal concentrations vs control): 1.236
log2 Fold Change (gene HP0630, exposed to lethal concentrations vs control): -0.625
log2 Fold Change (gene HP0631, exposed to lethal concentrations vs control): 2.021
log2 Fold Change (gene HP0632, exposed to lethal concentrations vs control): 1.870
log2 Fold Change (gene HP0633, exposed to lethal concentrations vs control): 1.625
log2 Fold Change (gene HP0634, exposed to lethal concentrations of V vs control): 0.504
log2 Fold Change (gene HP0635, exposed to lethal concentrations vs control): -0.739
log2 Fold Change (gene HP0637, exposed to lethal concentration of V vs control): -1.649
log2 Fold Change (gene HP0638, exposed to lethal concentrations vs control): 0.080
log2 Fold Change (gene HP0644, exposed to lethal concentrations vs control): -0.793
log2 Fold Change (gene HP0645, exposed to lethal concentration of V vs control): -1.748
log2 Fold Change (gene HP0646, exposed to lethal concentrations vs control): -0.862
log2 Fold Change (gene HP0653, exposed to lethal concentrations vs control): 2.242
log2 Fold Change (gene HP0654, exposed to lethal concentrations of V vs control): 0.826
log2 Fold Change (gene HP0656, exposed to lethal concentrations vs control): -0.824
log2 Fold Change (gene HP0657, exposed to lethal concentrations vs control): -0.772
log2 Fold Change (gene HP0663, exposed to lethal concentrations vs control): 1.111
log2 Fold Change (gene HP0664, exposed to lethal concentrations vs control): 0.136
log2 Fold Change (gene HP0665, exposed to lethal concentrations of V vs control): 0.535
log2 Fold Change (gene HP0666, exposed to lethal concentrations vs control): -0.109
log2 Fold Change (gene HP0672, exposed to lethal concentrations vs control): -0.133
log2 Fold Change (gene HP0675, exposed to lethal concentrations vs control): 0.086
log2 Fold Change (gene HP0677, exposed to lethal concentrations vs control): -0.113
log2 Fold Change (gene HP0681, exposed to lethal concentrations vs control): 1.111
log2 Fold Change (gene HP0682, exposed to lethal concentrations vs control): 1.136
log2 Fold Change (gene HP0686, exposed to lethal concentrations vs control): 1.023
log2 Fold Change (gene HP0687, exposed to lethal concentration of V vs control): -1.311
log2 Fold Change (gene HP0690, exposed to lethal concentrations vs control): 1.169
log2 Fold Change (gene HP0691, exposed to lethal concentrations vs control): 1.485
log2 Fold Change (gene HP0693, exposed to lethal concentrations vs control): 1.154
log2 Fold Change (gene HP0695, exposed to lethal concentrations vs control): 2.310
log2 Fold Change (gene HP0696, exposed to lethal concentrations vs control): 2.297
log2 Fold Change (gene HP0697, exposed to lethal concentrations vs control): 1.780
log2 Fold Change (gene HP0700, exposed to lethal concentration of V vs control): -1.131
log2 Fold Change (gene HP0701, exposed to lethal concentrations vs control): 0.074
log2 Fold Change (gene HP0703, exposed to lethal concentration of V vs control): -0.991
log2 Fold Change (gene HP0708, exposed to lethal concentrations vs control): 0.027
log2 Fold Change (gene HP0710, exposed to lethal concentrations vs control): 1.144
log2 Fold Change (gene HP0711, exposed to lethal concentrations of V vs control): 0.561
log2 Fold Change (gene HP0714, exposed to lethal concentrations vs control): 1.040
log2 Fold Change (gene HP0715, exposed to lethal concentrations vs control): 1.758
log2 Fold Change (gene HP0716, exposed to lethal concentrations of V vs control): 0.879
log2 Fold Change (gene HP0717, exposed to lethal concentrations of V vs control): 0.698
log2 Fold Change (gene HP0718, exposed to lethal concentrations vs control): -0.082
log2 Fold Change (gene HP0721, exposed to lethal concentration of V vs control): -0.904
log2 Fold Change (gene HP0723, exposed to lethal concentrations vs control): 1.622
log2 Fold Change (gene HP0724, exposed to lethal concentrations vs control): 1.088
log2 Fold Change (gene HP0727, exposed to lethal concentrations vs control): -0.083
log2 Fold Change (gene HP0728, exposed to lethal concentrations vs control): -0.686
log2 Fold Change (gene HP0729, exposed to lethal concentrations vs control): 1.192
log2 Fold Change (gene HP0730, exposed to lethal concentrations vs control): 1.444

Source: article PMC11432330, “Novel Drug-like HsrA Inhibitors Exhibit Potent Narrow-Spectrum Antimicrobial Activities against Helicobacter pylori” (International Journal of Molecular Sciences, 2024)
